# Results from US10865191B2, “Heterocyclic compounds useful as modulators of TNF alpha” (BRISTOL-MYERS SQUIBB COMPANY, priority 2015, dated 2020).
# Sequences of proteins named here, by UniProt entry; tags and fusion partners are left off. Residues count along the entry.
# UniProt P01375, 77-233 limits assumed: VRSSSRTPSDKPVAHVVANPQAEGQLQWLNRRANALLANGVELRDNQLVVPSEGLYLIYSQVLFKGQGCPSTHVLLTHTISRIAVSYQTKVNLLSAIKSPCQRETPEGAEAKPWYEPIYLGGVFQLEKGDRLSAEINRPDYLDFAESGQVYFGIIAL
# Where two headings read alike, the source gives them in different places. Some results were stated once for a whole list of compounds, not compound by compound.
# Molecular target: TNFα (Homo sapiens, UniProt P01375)
# Assay: TNF induced HEK-Blue assay (NF-kB-driven secreted alkaline phosphatase reporter)
# Assay type: cell-based
# Method in brief: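 HEK-Blue-CD40L cells (NF-kB-driven SEAP reporter), 20,000/well, added after 30 min pre-incubation of compound (0.004–25 μM final) with TNFα 0.5 ng/mL final at 37 °C; 18 h incubation. SEAP read with QUANTI-Blue at 620 nm; IC50 from 4-parameter logistic fit, normalized to unstimulated and stimulated DMSO controls.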
# [1] = TNFα 0.5 ng/mL, HEK-Blue-CD40L cells, 18 h; read-out: IC50 values measured in the TNF induced HEK-Blue assay
Compound,IC50 [1] [µM],"IC50 (read-out: IC50 values measured in the TNF induced HEK-Blue assay; TNFα 0.5 ng/mL, HEK-Blue-CD40L cells, 18 h) [µM]"
"CC(CC1CCCC1)Nc1c(Cl)cnc2ccc(-c3cnc(C(C)(C)O)nc3)cc12 (racemic) [Example 140, 2-(5-(3-chloro-4-((1-cyclopentylpropan-2-yl)amino)quinolin-6-yl)pyrimidin-2-yl)propan-2-ol]",≤ 25,
"CNC(=O)c1ccc(F)c([C@@H](C)Nc2c(Cl)cnc3ccc(-c4cnc(C(C)(C)O)nc4)cc23)c1 [Example 416, (R)-3-(1-((3-chloro-6-(2-(2-hydroxypropan-2-yl)pyrimidin-5-yl)quinolin-4-yl)amino)ethyl)-4-fluoro-N-methylbenzamide]",≤ 25,
"C[C@@H](Nc1c(Cl)cnc2ccc(-c3cnc(C(C)(C)O)nc3)cc12)c1cc(C2NC(=O)NC2=O)ccc1F (single isomer, unassigned) [Example 422]",≤ 25,
"CC(C)(O)CNc1ncc(-c2ccc3ncc(Cl)c(N[C@@H](c4ccccc4F)C(F)F)c3c2)cn1 [Example 80, (S)-1-((5-(3-chloro-4-((2,2-difluoro-1-(2-fluorophenyl)ethyl)amino)quinolin-6-yl)pyrimidin-2-yl)amino)-2-methylpropan-2-ol]",≤ 25,
"C[C@@H](Nc1c(Cl)cnc2cnc(-c3cnc(N4CCN(CC(=O)O)CC4)nc3)cc12)c1ccccc1F (single isomer, unassigned) [Example 235]",≤ 25,
"Cc1nc2cc(F)c(-c3cnc(C(C)(C)O)nc3)cc2c(N[C@H](C)c2cccc(C#N)c2)c1Cl [Example 383, (R)-3-(1-((3-chloro-7-fluoro-6-(2-(2-hydroxypropan-2-yl)pyrimidin-5-yl)-2-methylquinolin-4-yl)amino)ethyl)benzonitrile]",≤ 25,
"CC(C)(O)c1ncc(-c2nc3c(N[C@H](c4cc(CO)ccc4F)C(F)F)c(Cl)cnc3cc2F)cn1 [Example 486, (R)-2-(5-(7-chloro-8-((2,2-difluoro-1-(2-fluoro-5-(hydroxymethyl)phenyl)ethyl)amino)-3-fluoro-1,5-naphthyridin-2-yl)pyrimidin-2-yl)propan-2-ol]",≤ 25,
"C[C@H](Nc1c(Cl)cnc2ccc(-c3cnc(C(C)(C)O)nc3)cc12)[C@H]1CCCN(C(=O)c2cn[nH]c2)C1 [Example 565, ((S)-3-((S)-1-((3-chloro-6-(2-(2-hydroxypropan-2-yl)pyrimidin-5-yl)quinolin-4-yl)amino)ethyl)piperidin-1-yl)(1H-pyrazol-4-yl)methanone]",≤ 25,
"C[C@@H](Nc1c(Cl)cnc2ccc(-c3cnc(C(C)(C)O)nc3)cc12)c1cc(-c2nnn(C)n2)ccc1F [Example 413, (R)-2-(5-(3-chloro-4-((1-(2-fluoro-5-(2-methyl-2H-tetrazol-5-yl)phenyl)ethyl)amino)quinolin-6-yl)pyrimidin-2-yl)propan-2-ol]",≤ 25,
"C[C@H](Nc1c(Cl)cnc2ccc(-c3cnc(C(C)(C)O)nc3)cc12)[C@H]1CCCN(c2cncnc2)C1 [Example 567, 2-(5-(3-chloro-4-(((S)-1-((S)-1-(pyrimidin-5-yl)piperidin-3-yl)ethyl)amino)quinolin-6-yl)pyrimidin-2-yl)propan-2-ol]",≤ 25,
"C[C@H](Nc1c(Cl)cnc2cc(F)c(-c3cnc(C(C)(C)O)nc3)nc12)c1ccccc1 [Example 208, (S)-2-(5-(7-chloro-3-fluoro-8-((1-phenylethyl)amino)-1,5-naphthyridin-2-yl)pyrimidin-2-yl)propan-2-ol]",≤ 25,
"Cc1nc2ccc(-c3cnc(C(C)(C)O)nc3)cc2c(N[C@H](C)c2cc(OCC(=O)O)ccc2F)c1Cl [Example 439, (R)-2-(3-(1-((3-chloro-6-(2-(2-hydroxypropan-2-yl)pyrimidin-5-yl)-2-methylquinolin-4-yl)amino)ethyl)-4-fluorophenoxy)acetic acid]",≤ 25,
"C[C@@H](Nc1c(Cl)cnc2ccc(-c3cnc(C(C)(C)O)nc3)cc12)c1cc(Br)ccc1F [Example 318, (R)-2-(5-(4-((1-(5-bromo-2-fluorophenyl)ethyl)amino)-3-chloroquinolin-6-yl)pyrimidin-2-yl)propan-2-ol]",≤ 25,
"Cc1nc2ccc(-c3cnc(C(C)(C)O)nc3)cc2c(N[C@H](C)c2ccccc2)c1Cl [Example 322, (R)-2-(5-(3-chloro-2-methyl-4-((1-phenylethyl)amino)quinolin-6-yl)pyrimidin-2-yl)propan-2-ol]",≤ 25,
"Cc1nc2ccc(-c3cnc(C(C)(C)O)nc3)cc2c(N[C@H](C)c2cc(-c3cn[nH]c3)ccc2F)c1Cl [Example 335, (R)-2-(5-(3-chloro-4-((1-(2-fluoro-5-(1H-pyrazol-4-yl)phenyl)ethyl)amino)-2-methylquinolin-6-yl)pyrimidin-2-yl) propan-2-ol]",≤ 25,
"C[C@@H](Nc1c(Cl)cnc2ccccc12)c1cc(-c2cncs2)ccc1F [Example 542, (R)-3-chloro-N-(1-(2-fluoro-5-(thiazol-5-yl)phenyl)ethyl)quinolin-4-amine]",≤ 25,
"Cc1ccc(C)c(Nc2c(Cl)c(C(=O)O)nc3ccc(-c4ccc(C#N)nc4)cc23)c1 [Example 31, 3-chloro-6-(6-cyanopyridin-3-yl)-4-((2,5-dimethylphenyl)amino)quinoline-2-carboxylic acid]",≤ 25,

Compound,IC50 [1] [µM],"IC50 (read-out: IC50 values measured in the TNF induced HEK-Blue assay; TNFα 0.5 ng/mL, HEK-Blue-CD40L cells, 18 h) [µM]"
"Cc1ccc(C)c(Nc2c(Cl)c(C)nc3ccc(-c4ccc(CN5CCNCC5)cc4)cc23)c1 [Example 7, 3-chloro-N-(2,5-dimethylphenyl)-2-methyl-6-(4-(piperazin-1-ylmethyl)phenyl)quinolin-4-amine]",≤ 25,
"C[C@@H](Nc1c(Cl)cnc2ccccc12)c1cc(-c2cncn2C)ccc1F [Example 524, (R)-3-chloro-N-(1-(2-fluoro-5-(1-methyl-1H-imidazol-5-yl)phenyl)ethyl)quinolin-4-amine]",≤ 25,
"CC(=O)NC(CO)c1ccc(-c2ccc3ncc(Cl)c(N[C@H](C)c4ccccc4F)c3c2)cc1 (stereo partly drawn) [Example 482, N-(1-(4-(3-chloro-4-(((R)-1-(2-fluorophenyl)ethyl)amino)quinolin-6-yl)phenyl)-2-hydroxyethyl)acetamide]",≤ 25,
COC(=O)CN1CCN(c2ncc(-c3ccc4ncc(Cl)c(N[C@H](C)c5ccccc5F)c4c3)cn2)CC1 [Example 224],≤ 25,
"CC(Nc1c(Cl)cnc2ccc(-c3ccc(C(C)(C)O)cc3)cc12)c1nccn1C (racemic) [Example 201, 2-(4-(3-chloro-4-((1-(1-methyl-1H-imidazol-2-yl)ethyl)amino)quinolin-6-yl)phenyl)propan-2-ol]",≤ 25,
"Cc1ccc(C)c(Nc2c(Cl)c(N)nc3ccc(-c4cnc(NCC(C)(C)O)nc4)cc23)c1 [Example 69, 1-((5-(2-amino-3-chloro-4-((2,5-dimethylphenyl)amino)quinolin-6-yl)pyrimidin-2-yl)amino)-2-methylpropan-2-ol]",≤ 25,
"Cc1nc2c(F)cc(-c3cnc(C(C)(C)O)nc3)cc2c(NC(C)c2ccc(F)cc2)c1Cl (racemic) [Example 301, 2-(5-(3-chloro-8-fluoro-4-((1-(4-fluorophenyl)ethyl)amino)-2-methylquinolin-6-yl)pyrimidin-2-yl)propan-2-ol]",≤ 25,
"CC(C)(O)c1ncc(-c2ccc3ncc(Cl)c(NC(c4ccccc4F)C(C)(C)F)c3c2)cn1 (racemic) [Example 229, 2-(5-(3-chloro-4-((2-fluoro-1-(2-fluorophenyl)-2-methylpropyl)amino)quinolin-6-yl)pyrimidin-2-yl)propan-2-ol]",≤ 25,
"C[C@H](Nc1c(Cl)cnc2cnc(-c3cnc(N4CCN(CC(=O)O)CC4)nc3)cc12)c1ccccc1F (single isomer, unassigned) [Example 236]",≤ 25,
"Cc1ccccc1-c1ccc(F)c([C@@H](C)Nc2c(Cl)c(C)nc3ccc(-c4cnc(C(C)(C)O)nc4)cc23)c1 [Example 332, (R)-2-(5-(3-chloro-4-((1-(4-fluoro-2′-methyl-[1,1′-biphenyl]-3-yl)ethyl)amino)-2-methylquinolin-6-yl)pyrimidin-2-yl)propan-2-ol]",≤ 25,
"CC(Nc1c(Cl)cnc2cc(F)c(-c3cnc(C(C)(C)O)nc3)cc12)c1ccccc1F (stereo not drawn) [Example 248, 2-(5-(3-chloro-7-fluoro-4-((1-(2-fluorophenyl)ethyl)amino)quinolin-6-yl)pyrimidin-2-yl)propan-2-ol]",,≤ 25
"Cc1nc2cc(F)c(-c3cnc(C(C)(C)O)nc3)nc2c(N[C@H](C)c2cc(CO)ccc2F)c1Cl [Example 577, (R)-2-(5-(7-chloro-3-fluoro-8-((1-(2-fluoro-5-(hydroxymethyl)phenyl)ethyl)amino)-6-methyl-1,5-naphthyridin-2-yl)pyrimidin-2-yl)propan-2-ol]",≤ 25,
"Cc1nc2ccc(-c3ccc(C(C)(C)O)cc3)cc2c(N[C@H](C)c2ccccc2F)c1Cl [Example 500, (R)-2-(4-(3-chloro-4-((1-(2-fluorophenyl)ethyl)amino)-2-methylquinolin-6-yl)phenyl)propan-2-ol]",≤ 25,
"CC(C)(O)c1ncc(-c2ccc3ncc(Cl)c(NCc4ccccc4C(F)(F)F)c3c2)cn1 [Example 146, 2-(5-(3-chloro-4-((2-(trifluoromethyl)benzyl)amino)quinolin-6-yl)pyrimidin-2-yl)propan-2-ol]",≤ 25,
"C[C@@H](Nc1c(Cl)cnc2ccc(-c3cnc(C(C)(C)O)nc3)cc12)c1cc(O)ccc1F [Example 405, (R)-3-(1-((3-chloro-6-(2-(2-hydroxypropan-2-yl)pyrimidin-5-yl)quinolin-4-yl)amino)ethyl)-4-fluorophenol]",≤ 25,
"CC(Nc1c(Cl)cnc2cc(F)c(-c3ccc(C(O)CN4CCOCC4)cc3)cc12)c1ccccc1F (stereo not drawn) [Example 272, 1-(4-(3-chloro-7-fluoro-4-((1-(2-fluorophenyl)ethyl)amino)quinolin-6-yl)phenyl)-2-morpholinoethan-1-ol]",≤ 25,
